Some of the results follow. Many values rest on one well or one pass, so single values are uncertain.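 Imaging used 1,536-well plates; nuclei positive for cleaved PARP by antibody were divided by total DNA-stained nuclei to yield the apoptosis fraction. Doses for screening kept most cells viable, and cell lines differ markedly in resting and induced cleaved-PARP levels.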
Legend:
Test in all cases: cleaved PARP positive nuclei fraction relative to DMSO control; melanoma cells; higher = more apoptosis
Details in all cases: library dose: low library concentration; 72 h
[1] = system: MZ2-MEL
[2] = system: MeWo
[3] = system: RPMI7951
[4] = system: RVH-421
[5] = system: SkMel28
[6] = system: SkMel2
[7] = system: SkMel30
[8] = system: SkMel5
[9] = system: UACC257
[10] = system: UACC62

| SMILES | cleaved PARP positive nuclei fraction [1] [%] | cleaved PARP positive nuclei fraction [2] [%] | cleaved PARP positive nuclei fraction [3] [%] | cleaved PARP positive nuclei fraction [4] [%] | cleaved PARP positive nuclei fraction [5] [%] | cleaved PARP positive nuclei fraction [6] [%] | cleaved PARP positive nuclei fraction [7] [%] | cleaved PARP positive nuclei fraction [8] [%] | cleaved PARP positive nuclei fraction [9] [%] | cleaved PARP positive nuclei fraction [10] [%] |
| --- | --- | --- | --- | --- | --- | --- | --- | --- | --- | --- |
| CC(=O)O[C@@]12CO[C@@H]1C[C@H](O)[C@@]1(C)C(=O)[C@H](O)C3=C(C)[C@@H](OC(=O)[C@H](O)[C@@H](NC(=O)OC(C)(C)C)c4ccccc4)C[C@@](O)([C@@H](OC(=O)c4ccccc4)[C@H]21)C3(C)C [Docetaxel] + O=c1cc(-c2cccc3c2Sc2ccccc2S3)oc(N2CCOCC2)c1 [KU55933] (first compound 0.0001 µM, partner dose 1 µM) | 676 | 235 | 242 | 205 | 666 | 409 | 375 | 86.7 | 476 | 870 |
| NC(=O)c1ccc(N(C(N)=O)c2c(F)cccc2F)nc1-c1ccc(F)cc1F + Oc1cc(-c2nc(-c3ccccc3)[nH]c2-c2ccncc2)ccc1Cl [L779450] (first compound 0.4 µM, partner dose 0.2 µM) | 88.7 | 83.6 | 32 | 85.2 | 177 | 124 | 117 | 37.6 | 170 | 299 |
| NC(=O)c1ccc(N(C(N)=O)c2c(F)cccc2F)nc1-c1ccc(F)cc1F + CC(C)(C)c1cnc(CSc2cnc(NC(=O)C3CCNCC3)s2)o1 [SNS-032] (first compound 0.4 µM, partner dose 0.01 µM) | 67.6 | 20.6 | 34.1 | 52.1 | 32.9 | 139 | 121 | 38.7 | 25.5 | 78.9 |
| C[C@]1(O)C[C@@H](c2nc(-c3ccc4ccc(-c5ccccc5)nc4c3)c3c(N)nccn32)C1 + COc1cc2ncnc(Nc3ccc(Oc4ccccc4)cc3)c2cc1OC [SrcI1] (first compound 0.4 µM, partner dose 2 µM) | 183 | 163 | 86 | 218 | 186 | 76.7 | 325 | 71.9 | 26.4 | 103 |
| Cn1cnc2c(F)c(Nc3ccc(Br)cc3Cl)c(C(=O)NOCCO)cc21 [selumetinib] + Cn1cc(/C=C2\C(=O)Nc3cccnc32)c2ccccc21 [GW441756] (first compound 0.015 µM, partner dose 0.4 µM) | 399 | 113 | 32.5 | 58.2 | 120 | 26.1 | 69.7 | 132 | 110 | 164 |
| NC1(c2ccc(-c3nc4ccn5c(=O)[nH]nc5c4cc3-c3ccccc3)cc2)CCC1 + CCc1ccc(CCOc2ccc(CC3SC(=O)NC3=O)cc2)nc1 [pioglitazone] (first compound 0.4 µM, partner dose 2 µM) | 148 | 66.7 | 103 | 142 | 395 | 30.3 | 38.1 | 265 | 55 | 233 |
| CS(=O)(=O)c1ccc(C(=O)Nc2ccc(Cl)c(-c3ccccn3)c2)c(Cl)c1 [vismodegib] + N#Cc1c(O)c2c(-c3ccc(-c4ccccc4O)cc3)csc2[nH]c1=O [A769662] (first compound 1 µM, partner dose 2 µM) | 100 | 420 | 71.3 | 36.1 | 63.2 | 92.1 | 54.9 | 139 | 175 | 69.7 |
| NC1(c2ccc(-c3nc4ccn5c(=O)[nH]nc5c4cc3-c3ccccc3)cc2)CCC1 + Cc1ccc(NC(=O)c2cccc(N(C)C)c2)cc1NC(=O)c1ccc(O)cc1 [ZM336372] (first compound 0.4 µM, partner dose 2 µM) | 138 | 33.5 | 177 | 93.5 | 73 | 84.4 | 84.2 | 35.4 | 59.1 | 179 |
| COc1ccc(C2=N[C@@H](c3ccc(Cl)cc3)[C@@H](c3ccc(Cl)cc3)N2C(=O)N2CCNC(=O)C2)c(OC(C)C)c1 [Nutlin-3] + O=S(=O)(c1ccccc1)N(CC(F)(F)F)c1ccc(C(O)(C(F)(F)F)C(F)(F)F)cc1 [T0901317] (first compound 0.1 µM, partner dose 1.4 µM) | 105 | 80.1 | 244 | 40 | 188 | 33.6 | 116 | 179 | 62.5 | 264 |
| COc1ccc(C2=N[C@@H](c3ccc(Cl)cc3)[C@@H](c3ccc(Cl)cc3)N2C(=O)N2CCNC(=O)C2)c(OC(C)C)c1 [Nutlin-3] + O=C(Nc1ccccc1)c1cc([N+](=O)[O-])ccc1Cl [GW9662] (first compound 0.1 µM, partner dose 2 µM) | 101 | 188 | 64.2 | 104 | 124 | 119 | 43.8 | 76.7 | 290 | 92.9 |
| Cn1cnc2c(F)c(Nc3ccc(Br)cc3Cl)c(C(=O)NOCCO)cc21 [selumetinib] + C=CCn1c(=O)c2cnc(Nc3ccc(N4CCN(C)CC4)cc3)nc2n1-c1cccc(C(C)(C)O)n1 [MK1775] (first compound 0.015 µM, partner dose 0.02 µM) | 745 | 197 | 151 | 99.6 | 182 | 171 | 90.2 | 63.8 | 162 | 198 |
| CS(=O)(=O)c1ccc(C(=O)Nc2ccc(Cl)c(-c3ccccn3)c2)c(Cl)c1 [vismodegib] + NCC(=O)Nc1ccc(-n2nc(C(F)(F)F)cc2-c2ccc3c(ccc4ccccc43)c2)cc1 [OSU03012] (first compound 1 µM, partner dose 1 µM) | 109 | 89.4 | 94.4 | 222 | 218 | 181 | 70.9 | 102 | 170 | 131 |
| NC1(c2ccc(-c3nc4ccn5c(=O)[nH]nc5c4cc3-c3ccccc3)cc2)CCC1 + COc1cc2ncnc(Nc3ccc(Oc4ccccc4)cc3)c2cc1OC [SrcI1] (first compound 0.4 µM, partner dose 2 µM) | 167 | 33.8 | 85.4 | 214 | 219 | 100 | 129 | 31.4 | 156 | 458 |
| CCN(CC)CCNC(=O)c1c(C)[nH]c(/C=C2\C(=O)Nc3ccc(F)cc32)c1C [sunitinib] + c1cc(-c2cnn3cc(-c4ccc(OCCN5CCCCC5)cc4)cnc23)ccn1 [Dorsomorphin] (first compound 0.4 µM, partner dose 0.4 µM) | 88.1 | 152 | 57.9 | 135 | 151 | 53.4 | 252 | 76.6 | 49.7 | 145 |
| NC(=O)c1ccc(N(C(N)=O)c2c(F)cccc2F)nc1-c1ccc(F)cc1F + O=S(=O)(c1ccccc1)N(CC(F)(F)F)c1ccc(C(O)(C(F)(F)F)C(F)(F)F)cc1 [T0901317] (first compound 0.4 µM, partner dose 1.4 µM) | 136 | 38.6 | 111 | 61.6 | 86.9 | 113 | 42.2 | 84.5 | 44.4 | 286 |
| Cn1sc(=O)n(Cc2ccccc2)c1=O + COc1cc(Nc2ncc(F)c(Nc3ccc4c(n3)NC(=O)C(C)(C)O4)n2)cc(OC)c1OC [Tamatinib] (first compound 0.4 µM, partner dose 0.4 µM) | 111 | 75 | 53.9 | 130 | 129 | 135 | 77 | 85.6 | 157 | 116 |
| NC1(c2ccc(-c3nc4ccn5c(=O)[nH]nc5c4cc3-c3ccccc3)cc2)CCC1 + Cn1cncc1[C@@](N)(c1ccc(Cl)cc1)c1ccc2c(c1)c(-c1cccc(Cl)c1)cc(=O)n2C [tipifarnib] (first compound 0.4 µM, partner dose 0.01 µM) | 75.8 | 132 | 141 | 29.5 | 173 | 101 | 70.1 | 104 | 111 | 460 |
| CC(=O)O[C@@]12CO[C@@H]1C[C@H](O)[C@@]1(C)C(=O)[C@H](O)C3=C(C)[C@@H](OC(=O)[C@H](O)[C@@H](NC(=O)OC(C)(C)C)c4ccccc4)C[C@@](O)([C@@H](OC(=O)c4ccccc4)[C@H]21)C3(C)C [Docetaxel] + COC(=O)c1sccc1S(=O)(=O)Nc1ccc(Nc2ccccc2)cc1OC [GSK0660] (first compound 0.0001 µM, partner dose 1 µM) | 677 | 424 | 83.6 | 75.7 | 137 | 454 | 256 | 24 | 64.2 | 1420 |
| Cn1sc(=O)n(Cc2ccccc2)c1=O + O=c1cc(-c2cccc3c2Sc2ccccc2S3)oc(N2CCOCC2)c1 [KU55933] (first compound 0.4 µM, partner dose 1 µM) | 102 | 121 | 38.1 | 98.7 | 114 | 249 | 35 | 79.4 | 165 | 157 |
| Cn1cnc2c(F)c(Nc3ccc(Br)cc3Cl)c(C(=O)NOCCO)cc21 [selumetinib] + CO[C@@H]1[C@H](N(C)C(=O)c2ccccc2)C[C@H]2O[C@]1(C)n1c3ccccc3c3c4c(c5c6ccccc6n2c5c31)C(=O)NC4 [Midostaurin] (first compound 0.015 µM, partner dose 0.08 µM) | 319 | 268 | 184 | 170 | 20.8 | 120 | 41.5 | 37.7 | 110 | 184 |
| C[C@@H](N)c1ccc(C(=O)Nc2ccnc3[nH]ccc23)cc1 + COc1ccc(-c2ccc3c(N4CCOCC4)nc(N4C[C@@H](C)O[C@@H](C)C4)nc3n2)cc1CO [KU0063794] (first compound 0.4 µM, partner dose 0.02 µM) | 100 | 226 | 71.1 | 250 | 99.6 | 102 | 73.1 | 182 | 140 | 207 |

Reformatted tab-delimited: part of the list above.
SMILES	cleaved PARP positive nuclei fraction [1] [%]	cleaved PARP positive nuclei fraction [2] [%]	cleaved PARP positive nuclei fraction [3] [%]	cleaved PARP positive nuclei fraction [4] [%]	cleaved PARP positive nuclei fraction [5] [%]	cleaved PARP positive nuclei fraction [6] [%]	cleaved PARP positive nuclei fraction [7] [%]	cleaved PARP positive nuclei fraction [8] [%]	cleaved PARP positive nuclei fraction [9] [%]	cleaved PARP positive nuclei fraction [10] [%]
COc1ccc(C2=N[C@@H](c3ccc(Cl)cc3)[C@@H](c3ccc(Cl)cc3)N2C(=O)N2CCNC(=O)C2)c(OC(C)C)c1 [Nutlin-3] + O=C(Nc1ccccc1)c1cc([N+](=O)[O-])ccc1Cl [GW9662] (first compound 0.1 µM, partner dose 2 µM)	101	188	64.2	104	124	119	43.8	76.7	290	92.9
Cn1cnc2c(F)c(Nc3ccc(Br)cc3Cl)c(C(=O)NOCCO)cc21 [selumetinib] + C=CCn1c(=O)c2cnc(Nc3ccc(N4CCN(C)CC4)cc3)nc2n1-c1cccc(C(C)(C)O)n1 [MK1775] (first compound 0.015 µM, partner dose 0.02 µM)	745	197	151	99.6	182	171	90.2	63.8	162	198
CS(=O)(=O)c1ccc(C(=O)Nc2ccc(Cl)c(-c3ccccn3)c2)c(Cl)c1 [vismodegib] + NCC(=O)Nc1ccc(-n2nc(C(F)(F)F)cc2-c2ccc3c(ccc4ccccc43)c2)cc1 [OSU03012] (first compound 1 µM, partner dose 1 µM)	109	89.4	94.4	222	218	181	70.9	102	170	131
NC(=O)c1ccc(N(C(N)=O)c2c(F)cccc2F)nc1-c1ccc(F)cc1F + O=S(=O)(c1ccccc1)N(CC(F)(F)F)c1ccc(C(O)(C(F)(F)F)C(F)(F)F)cc1 [T0901317] (first compound 0.4 µM, partner dose 1.4 µM)	136	38.6	111	61.6	86.9	113	42.2	84.5	44.4	286

Reference: the supplement of paper PMC4604168 (melanoma cell lines)
